The source of these data is PMC5996148.

Values joined by “and” are separate entries in the source; they are usually repeats but may differ in a detail not shown here. Equal entries are not always repeated. This is one part of the list. For some assays here: The source does not settle which construct or isoform was used.

Test systems include FAM40B (human); FAM44B (human); FAM57A (human); FAM70B (human); FAM80A (human); FAM82C (human); FAM84A (human); FAM9C (human); FANCG (human); FANCI (human); FBP1 (human); FBXL2 (human); FBXO21 (human); FBXO22 (human); FBXO25 (human); FBXO3 (human); FBXO38 (human).
Test in all cases: protein microarray (ProtoArray v5.0), streptavidin-Alexa Fluor 647
Common to all, as to settings: 3'-biotin; 20 mM Tris (pH 7.5), 5 mM MgCl2, 100 mM KCl, 0.1% Tween-20, A/T-rich and random oligonucleotide blockers; temperature not stated; high values mean tight binding

A further test has as its target FAU (UniProt P62861).
For another test, the target named is T1, FBXL16 (UniProt Q8N461).
T1 sequence: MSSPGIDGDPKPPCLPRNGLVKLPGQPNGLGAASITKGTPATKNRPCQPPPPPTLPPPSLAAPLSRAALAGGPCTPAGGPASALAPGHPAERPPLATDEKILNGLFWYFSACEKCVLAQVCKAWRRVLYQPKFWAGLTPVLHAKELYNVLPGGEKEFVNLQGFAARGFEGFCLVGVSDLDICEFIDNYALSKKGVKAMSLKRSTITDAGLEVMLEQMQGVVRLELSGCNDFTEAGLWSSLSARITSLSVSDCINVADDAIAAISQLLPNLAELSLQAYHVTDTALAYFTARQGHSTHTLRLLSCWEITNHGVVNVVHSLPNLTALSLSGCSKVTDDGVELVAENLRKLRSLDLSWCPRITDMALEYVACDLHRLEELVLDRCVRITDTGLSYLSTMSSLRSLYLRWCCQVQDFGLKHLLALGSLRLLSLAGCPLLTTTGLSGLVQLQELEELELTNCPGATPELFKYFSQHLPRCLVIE

The target of the next test is T2, FBXO36 (UniProt Q8NEA4).
T2 sequence: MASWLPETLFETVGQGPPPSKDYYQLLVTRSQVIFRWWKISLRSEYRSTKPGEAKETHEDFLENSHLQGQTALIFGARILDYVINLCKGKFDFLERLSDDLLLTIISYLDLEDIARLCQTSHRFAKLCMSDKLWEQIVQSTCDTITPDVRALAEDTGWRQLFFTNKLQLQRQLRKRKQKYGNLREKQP

Take “GGGAGGCTGAGGCAGG [G4-1 biotinylated (PQS2)]”: the binding signal in the test on FAM40B (human) is -0.267 z-score; with FAM44B (human) it was -0.374 z-score; in the test with FAM57A (human) it was -0.248 z-score; in the test on FAM70B (human), -0.316 z-score; in the test on FAM80A (human) it was -0.331 z-score; with FAM82C (human), -0.343 z-score. In addition, the binding signal was -0.316 z-score with FAM84A (human); -0.333 z-score in the test with FAM9C (human); -0.347 z-score in the test on FANCG (human); -0.356 z-score in the test on FANCI (human); 6.01 z-score in the test with FAU; -0.347 z-score in the test with FBP1 (human). In addition, the binding signal was -0.272 z-score and -0.338 z-score in the test with FBXL16; -0.323 z-score with FBXL2 (human); -0.308 z-score with FBXO21 (human); -0.314 z-score with FBXO22 (human); -0.297 z-score in the test on FBXO25 (human); -0.286 z-score in the test with FBXO3 (human). For the same sequence, the binding signal in the test with FBXO36 was -0.316 z-score; in the test with FBXO38 (human), -0.322 z-score.
